{
  "source": "PubChem BioAssay AID540303",
  "about": "(National Center for Advancing Translational Sciences (NCATS), 2011)",
  "note": "Hit rate of the full screen: of about 330,000 compounds, about 1,000 (0.3%) were called active. This list was built around the results that the source calls inconclusive (neither active nor inactive); the mix of calls is not that of the screen. The call rests on the fitted dose curve; in most records, active means well fitted inhibition curve with a large enough effect; inconclusive means small, poorly fitted or top-dose-only effect; inactive means no such curve, though single readings can be large or run the other way; tested in mouse RAW 264.7 cells. Where the call is inconclusive, the potency comes from a doubtful curve fit. Potency means the concentration at half of the fitted maximal effect.",
  "data": [
    {"assay": "qHTS for Inhibitors of Cell Surface uPA Generation; further: nearly all actives have a fitted effect of over 55% in size", "settings": "cell surface uPA generation assay; series mostly up to 38.3 µM", "procedure,_shortened": "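Using RAW 264.7 macrophages, the screen measures whether compounds keep cellular ATP up by preventing uPA-driven LF translocation. Treatment lasted 24 h at 37 C, with a final top concentration of 38.3 uM, and luminescence was the readout.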", "values": [
      {"smiles": "Oc1ccc(C[C@H]2CNCCN2CCCCC2CCCCC2)cc1", "Potency": "inconclusive: 7.94 µM [inhibitor, single point]"},
      {"smiles": "Nc1cccc(C#Cc2ccc3c(=O)c4ccccc4oc3c2)c1", "Potency": "inconclusive: 11.2 µM [inhibitor, partial curve]"},
      {"smiles": "CCN(CC)CCN1c2ccccc2Sc2ccccc21", "Potency": "inconclusive: 7.94 µM [inhibitor, partial curve, poor fit]"},
      {"smiles": "Cc1ccc(NC(=O)c2cc(-c3cccs3)on2)cc1", "Potency": "inactive"},
      {"smiles": "COCCN(C)C(=O)CC1C(=O)NCCN1CC(c1ccccc1)c1ccccc1", "note": "(stereo not given)", "Potency": "inactive"},
      {"smiles": "Cc1ccc2nc(SCC(=O)c3ccccc3)nc(=O)n2c1", "Potency": "inactive"},
      {"smiles": "CCCOc1ncnc2c1[nH]c1ccc(C)cc12", "Potency": "inconclusive: 7.08 µM [inhibitor, partial curve, poor fit]"},
      {"smiles": "O=C(/C=C/c1ccc2c(c1)OCO2)Nc1nc2ccc(F)cc2s1", "Potency": "inconclusive: 0.0126 µM [inhibitor, full curve, poor fit]"},
      {"smiles": "COc1ccc(C2=NS(=O)(=O)N(C)C(C(=O)N3C(C)CCCC3C)=C2)cc1", "note": "(stereo not given)", "Potency": "inconclusive: 12.6 µM [inhibitor, single point]"},
      {"smiles": "Oc1ccc(/C=N/N=C/c2ccc(O)c(O)c2)cc1O", "Potency": "inactive"},
      {"smiles": "C/C(=C\\C(=O)c1ccc(C)cc1)Nc1cccc(O)c1", "Potency": "inconclusive: 1.41 µM [inhibitor, partial curve]"},
      {"smiles": "COc1ccc(C(=O)N/N=C/c2cc(Br)ccc2O)cc1OC", "Potency": "inactive"},
      {"smiles": "Cc1ccc(CN(C)C(=O)CN2C(=O)NC(c3ccccc3)(c3ccccc3)C2=O)c(C)c1", "Potency": "inconclusive: 11.2 µM [inhibitor, single point]"},
      {"smiles": "Cn1c(C(=O)NCCCN2CCN(c3ccc(F)cc3)CC2)cc2c(=O)n(C)c3ccccc3c21", "Potency": "inactive"},
      {"smiles": "CC(C)N(C(=O)[C@H]1C[C@H](CC(=O)NCc2ccco2)C(=O)N2CCc3c([nH]c4ccc(Cl)cc34)[C@]12C)C(C)C", "Potency": "inconclusive: 28.2 µM [inhibitor, single point]"},
      {"smiles": "Cc1ccc(Cn2c(=N)n(CC(=O)c3ccccc3)c3ccccc32)cc1", "Potency": "inconclusive: 28.2 µM [inhibitor, single point]"},
      {"smiles": "O=C(Nc1ccc2oc(-c3ccncc3)nc2c1)c1ccc(F)cc1", "Potency": "inactive"},
      {"smiles": "CCc1ccc([C@@H]2CC=C(C(=O)O)[C@H](c3ccc(C(C)(C)C)cc3)N2S(=O)(=O)c2ccc(C)cc2)cc1", "Potency": "inconclusive: 28.2 µM [inhibitor, single point]"},
      {"smiles": "Cc1cc(C)c(C)c(S(=O)(=O)N2CCN(CC(=O)c3c(N)n(Cc4ccccc4)c(=O)n(C)c3=O)CC2)c1C", "Potency": "inconclusive: 28.2 µM [inhibitor, single point]"},
      {"smiles": "CCOc1ccc(-c2cc(C(=O)N3CCCC3)c3ccccc3n2)cc1", "Potency": "inconclusive: 0.794 µM [inhibitor, full curve, poor fit]"},
      {"smiles": "COc1ccc(O)cc1", "Potency": "active: 6.31 µM"},
      {"smiles": "Cc1ccc(-c2cc(C(=O)Nc3nccs3)c3ccccc3n2)o1", "Potency": "inconclusive: 10 µM [inhibitor, partial curve, poor fit]"},
      {"smiles": "COc1ccc2nc(N3CCC(O)CC3)c(C#N)cc2c1", "Potency": "inactive"},
      {"smiles": "CC(C)(C)OC(=O)N1CCC(C(=O)Nc2cccc(C(=O)NCc3ccccc3)c2)CC1", "Potency": "inconclusive: 25.1 µM [inhibitor, partial curve, poor fit]"},
      {"smiles": "O=c1cc(-c2ccccc2)[nH]c2ccc(F)cc12", "Potency": "active: 0.398 µM"},
      {"smiles": "CC(C)NC(=S)N/N=C1\\CCCc2ccccc21", "Potency": "inactive"},
      {"smiles": "Cc1ccc(C(C)C)c(OCCCCN2CCNCC2)c1", "Potency": "inconclusive: 11.2 µM [inhibitor, partial curve, poor fit]"},
      {"smiles": "Cc1cccc(-c2nc3ccccc3c(=O)[nH]2)c1", "Potency": "inconclusive: 1.58 µM [inhibitor, full curve, poor fit]"},
      {"smiles": "COc1ccc(C(C(=O)NC2CCCCC2)N(C(=O)c2cccs2)c2ccc3c(c2)OCO3)cc1", "note": "(stereo not given)", "Potency": "inactive"},
      {"smiles": "COc1cc(C#Cc2c(-c3cncn3C)n(C)c3ccc(Br)cc23)cc(OC)c1", "Potency": "inconclusive: 10 µM [inhibitor, single point]"},
      {"smiles": "Nc1nonc1C(=O)NCCNC(=O)c1ccc(Cl)c(Cl)c1", "Potency": "inactive"},
      {"smiles": "CC(C)(C)CN1CCN(Cc2c[nH]c3ccccc23)CC1CCO", "note": "(stereo not given)", "Potency": "inconclusive: 12.6 µM [inhibitor, single point]"},
      {"smiles": "Nc1nonc1-n1nnc(C(=O)N/N=C/c2ccccc2O)c1CN1CCCC1", "Potency": "inconclusive: 15.8 µM [inhibitor, single point]"},
      {"smiles": "CC(C)[C@H](NC(=O)c1ccc(Cl)cc1Cl)C(=O)OCc1nc2ccsc2c(=O)[nH]1", "Potency": "inactive"},
      {"smiles": "O=C(Nc1nc(-c2cccs2)cs1)c1ccc([N+](=O)[O-])o1", "Potency": "inconclusive: 3.16 µM [inhibitor, partial curve]"},
      {"smiles": "O=C(/C=C/c1ccc(Cl)cc1Cl)Nc1cccc(S(=O)(=O)NC2=NCCC2)c1", "Potency": "active: 4.47 µM"},
      {"smiles": "O=C(COc1ccc(Cl)cc1[N+](=O)[O-])NC1CCCCC1", "Potency": "inconclusive: 12.6 µM [inhibitor, single point]"},
      {"smiles": "CCCn1c(CN2CCN(C(=O)OCC)CC2)nc2cc(NC(=O)C(C)C)ccc21", "Potency": "inconclusive: 7.94 µM [inhibitor, partial curve]"},
      {"smiles": "CCC(=O)NC(c1cccs1)c1ccc2cccnc2c1O", "note": "(stereo not given)", "Potency": "inconclusive: 2.51 µM [inhibitor, full curve, poor fit]"},
      {"smiles": "CCc1sc(N)nc1-c1ccccc1", "Potency": "inactive"},
      {"smiles": "O=C(N/N=C/c1ccc2c(c1)OCO2)c1cc(-c2ccc(F)cc2)nc2ccccc12", "Potency": "inconclusive: 14.1 µM [inhibitor, single point]"},
      {"smiles": "Cc1cccc(C(=O)OCC(=O)c2ccc3c(c2)OCCO3)c1O", "Potency": "inconclusive: 12.6 µM [inhibitor, single point]"},
      {"smiles": "O=C(COC(=O)c1ccc(O)cc1O)Nc1ccc2ccccc2c1", "Potency": "inactive"},
      {"smiles": "CN(C)c1ccc(/C=N\\NC(=O)c2cccc3cc[nH]c23)cc1", "Potency": "inconclusive: 7.94 µM [inhibitor, partial curve, poor fit]"},
      {"smiles": "Cc1ccc(NC(=O)c2ncn(CC(=O)N[C@H](C)c3cccc4ccccc34)n2)cc1C", "Potency": "inconclusive: 11.2 µM [inhibitor, single point]"}
    ]}
  ]
}
